In article PMC5572376 one finds binding data, which are given here for 1 molecule.

Results are given in words; binding and its absence hold for the method and conditions named. Binding can be weak; no strength is given. Tags and fused reporters may be left off the sequences shown.

The target in the assay is DivIVA (bacterial two-hybrid fusion) (S. aureus). In words: two-hybrid; bacterial two-hybrid (BACTH, T18/T25 adenylate cyclase fusions) in E. coli BTH101; beta-galactosidase activity judged qualitatively by blue colour on X-Gal.

B1: PBP1 (bacterial two-hybrid fusion) (protein, UniProt Q53725 1-744)
chain: MAKQKIKIKKNKIGAVLLVGLFGLLFFILVLRISYIMITGHSNGQDLVMKANEKYLVKNAQQPERGKIYDRNGKVLAEDVERYKLVAVIDKKASANSKKPRHVVDKKETAKKLSTVINMKPEEIEKRLSQKKAFQIEFGRKGTNLTYQDKLKIEKMNLPGISLLPETERFYPNGNFASHLIGRAQKNPDTGELKGALGVEKIFDSYLSGSKGSLRYIHDIWGYIAPNTKKEKQPKRGDDVHLTIDSNIQVFVEEALDGMVERYQPKDLFAVVMDAKTGEILAYSQRPTFNPETGKDFGKKWANDLYQNTYEPGSTFKSYGLAAAIQEGAFDPDKKYKSGHRDIMGSRISDWNRVGWGEIPMSLGFTYSSNTLMMHLQDLVGADKMKSWYERFGFGKSTKGMFDGEAPGQIGWSNELQQKTSSFGQSTTVTPVQMLQAQSAFFNDGNMLKPWFVNSVENPVSKRQFYKGQKQIAGKPITKDTAEKVEKQLDLVVNSKKSHAANYRIDGYEVEGKTGTAQVAAPNGGGYVKGPNPYFVSFMGDAPKKNPKVIVYAGMSLAQKNDQEAYELGVSKAFKPIMENTLKYLNVGKSKDDTSNAEYSKVPDVEGQDKQKAIDNVSAKSLEPVTIGSGTQIKAQSIKAGNKVLPHSKVLLLTDGDLTMPDMSGWTKEDVIAFENLTNIKVNLKGSGFVSHQSISKGQKLTEKDKIDVEFSSENVDSNSTNNSDSNSDDKKKSDSKTDKDKSD
Take B1: the binding result is “binds”.
